Source: the supplement of paper PMC10849652
The other results are listed elsewhere or left out.

Amino acid sequences for entries named in this document (tags omitted). A change or cut given only in a name is not applied to a line headed by its entry.
UniProt P33897: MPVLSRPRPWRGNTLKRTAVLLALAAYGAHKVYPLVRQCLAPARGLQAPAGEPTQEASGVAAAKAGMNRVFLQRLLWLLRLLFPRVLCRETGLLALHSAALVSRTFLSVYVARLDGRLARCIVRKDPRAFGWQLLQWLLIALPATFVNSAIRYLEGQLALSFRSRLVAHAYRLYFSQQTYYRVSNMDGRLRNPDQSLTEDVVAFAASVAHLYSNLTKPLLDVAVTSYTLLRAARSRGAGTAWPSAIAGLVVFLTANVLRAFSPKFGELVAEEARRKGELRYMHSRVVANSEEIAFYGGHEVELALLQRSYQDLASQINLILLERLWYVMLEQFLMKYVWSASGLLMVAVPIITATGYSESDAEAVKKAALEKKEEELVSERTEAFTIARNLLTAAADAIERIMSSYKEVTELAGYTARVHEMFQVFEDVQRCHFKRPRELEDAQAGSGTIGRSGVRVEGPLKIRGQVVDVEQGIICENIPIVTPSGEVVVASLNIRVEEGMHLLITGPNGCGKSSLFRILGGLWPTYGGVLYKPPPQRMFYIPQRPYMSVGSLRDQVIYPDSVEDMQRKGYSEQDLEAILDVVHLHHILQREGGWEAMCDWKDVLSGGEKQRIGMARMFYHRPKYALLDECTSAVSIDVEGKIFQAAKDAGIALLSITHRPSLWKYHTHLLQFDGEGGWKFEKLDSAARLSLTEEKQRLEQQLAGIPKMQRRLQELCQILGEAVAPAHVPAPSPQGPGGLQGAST
UniProt Q96CM8: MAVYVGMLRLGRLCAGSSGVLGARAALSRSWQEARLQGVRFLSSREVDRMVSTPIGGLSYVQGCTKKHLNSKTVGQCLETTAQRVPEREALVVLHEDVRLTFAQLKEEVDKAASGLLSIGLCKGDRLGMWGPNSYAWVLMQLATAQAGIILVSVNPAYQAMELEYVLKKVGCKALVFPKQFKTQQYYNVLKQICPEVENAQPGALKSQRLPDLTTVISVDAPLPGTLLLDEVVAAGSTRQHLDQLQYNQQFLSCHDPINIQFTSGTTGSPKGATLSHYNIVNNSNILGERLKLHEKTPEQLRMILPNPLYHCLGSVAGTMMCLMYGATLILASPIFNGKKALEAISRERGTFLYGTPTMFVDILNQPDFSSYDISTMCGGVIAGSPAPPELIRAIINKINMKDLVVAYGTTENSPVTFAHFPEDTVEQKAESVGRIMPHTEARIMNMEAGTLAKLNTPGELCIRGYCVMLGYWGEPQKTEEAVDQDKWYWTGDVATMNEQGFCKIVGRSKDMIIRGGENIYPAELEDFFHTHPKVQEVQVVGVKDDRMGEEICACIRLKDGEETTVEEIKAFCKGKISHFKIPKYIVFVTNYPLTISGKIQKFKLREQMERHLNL
UniProt P08183, whole entry, looked up: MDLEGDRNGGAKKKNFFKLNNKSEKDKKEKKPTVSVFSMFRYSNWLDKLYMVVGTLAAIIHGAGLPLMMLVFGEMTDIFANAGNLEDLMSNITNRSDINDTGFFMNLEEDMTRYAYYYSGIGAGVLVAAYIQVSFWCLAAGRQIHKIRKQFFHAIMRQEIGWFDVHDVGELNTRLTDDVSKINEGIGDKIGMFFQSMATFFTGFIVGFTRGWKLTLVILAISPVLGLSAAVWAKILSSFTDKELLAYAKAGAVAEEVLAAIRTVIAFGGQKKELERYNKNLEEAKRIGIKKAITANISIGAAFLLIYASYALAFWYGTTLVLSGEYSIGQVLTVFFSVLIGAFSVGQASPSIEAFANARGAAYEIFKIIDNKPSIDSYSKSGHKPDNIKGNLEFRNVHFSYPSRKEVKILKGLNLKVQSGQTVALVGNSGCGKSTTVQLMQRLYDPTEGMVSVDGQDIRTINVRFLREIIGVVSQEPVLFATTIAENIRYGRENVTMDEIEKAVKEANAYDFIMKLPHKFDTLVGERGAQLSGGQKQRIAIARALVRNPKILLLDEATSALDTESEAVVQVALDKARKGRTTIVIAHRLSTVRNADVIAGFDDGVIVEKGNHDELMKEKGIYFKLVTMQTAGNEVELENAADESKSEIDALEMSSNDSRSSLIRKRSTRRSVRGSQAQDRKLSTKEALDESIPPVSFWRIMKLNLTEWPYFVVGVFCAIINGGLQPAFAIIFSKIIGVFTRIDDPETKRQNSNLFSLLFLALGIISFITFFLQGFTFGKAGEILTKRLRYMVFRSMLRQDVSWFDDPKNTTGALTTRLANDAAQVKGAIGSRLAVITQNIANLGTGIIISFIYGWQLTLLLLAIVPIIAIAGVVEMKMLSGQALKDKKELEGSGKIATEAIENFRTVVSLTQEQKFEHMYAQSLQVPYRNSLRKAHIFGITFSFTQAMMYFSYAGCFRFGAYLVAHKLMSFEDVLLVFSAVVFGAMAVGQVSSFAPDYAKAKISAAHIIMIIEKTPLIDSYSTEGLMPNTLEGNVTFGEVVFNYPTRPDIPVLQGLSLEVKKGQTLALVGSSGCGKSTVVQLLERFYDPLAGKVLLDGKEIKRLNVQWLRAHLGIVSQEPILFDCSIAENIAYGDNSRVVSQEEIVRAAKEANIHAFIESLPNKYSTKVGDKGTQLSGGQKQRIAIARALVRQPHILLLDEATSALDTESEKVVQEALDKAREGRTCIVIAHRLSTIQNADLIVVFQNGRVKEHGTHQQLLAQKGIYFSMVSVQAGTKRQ
UniProt Q8IZY2: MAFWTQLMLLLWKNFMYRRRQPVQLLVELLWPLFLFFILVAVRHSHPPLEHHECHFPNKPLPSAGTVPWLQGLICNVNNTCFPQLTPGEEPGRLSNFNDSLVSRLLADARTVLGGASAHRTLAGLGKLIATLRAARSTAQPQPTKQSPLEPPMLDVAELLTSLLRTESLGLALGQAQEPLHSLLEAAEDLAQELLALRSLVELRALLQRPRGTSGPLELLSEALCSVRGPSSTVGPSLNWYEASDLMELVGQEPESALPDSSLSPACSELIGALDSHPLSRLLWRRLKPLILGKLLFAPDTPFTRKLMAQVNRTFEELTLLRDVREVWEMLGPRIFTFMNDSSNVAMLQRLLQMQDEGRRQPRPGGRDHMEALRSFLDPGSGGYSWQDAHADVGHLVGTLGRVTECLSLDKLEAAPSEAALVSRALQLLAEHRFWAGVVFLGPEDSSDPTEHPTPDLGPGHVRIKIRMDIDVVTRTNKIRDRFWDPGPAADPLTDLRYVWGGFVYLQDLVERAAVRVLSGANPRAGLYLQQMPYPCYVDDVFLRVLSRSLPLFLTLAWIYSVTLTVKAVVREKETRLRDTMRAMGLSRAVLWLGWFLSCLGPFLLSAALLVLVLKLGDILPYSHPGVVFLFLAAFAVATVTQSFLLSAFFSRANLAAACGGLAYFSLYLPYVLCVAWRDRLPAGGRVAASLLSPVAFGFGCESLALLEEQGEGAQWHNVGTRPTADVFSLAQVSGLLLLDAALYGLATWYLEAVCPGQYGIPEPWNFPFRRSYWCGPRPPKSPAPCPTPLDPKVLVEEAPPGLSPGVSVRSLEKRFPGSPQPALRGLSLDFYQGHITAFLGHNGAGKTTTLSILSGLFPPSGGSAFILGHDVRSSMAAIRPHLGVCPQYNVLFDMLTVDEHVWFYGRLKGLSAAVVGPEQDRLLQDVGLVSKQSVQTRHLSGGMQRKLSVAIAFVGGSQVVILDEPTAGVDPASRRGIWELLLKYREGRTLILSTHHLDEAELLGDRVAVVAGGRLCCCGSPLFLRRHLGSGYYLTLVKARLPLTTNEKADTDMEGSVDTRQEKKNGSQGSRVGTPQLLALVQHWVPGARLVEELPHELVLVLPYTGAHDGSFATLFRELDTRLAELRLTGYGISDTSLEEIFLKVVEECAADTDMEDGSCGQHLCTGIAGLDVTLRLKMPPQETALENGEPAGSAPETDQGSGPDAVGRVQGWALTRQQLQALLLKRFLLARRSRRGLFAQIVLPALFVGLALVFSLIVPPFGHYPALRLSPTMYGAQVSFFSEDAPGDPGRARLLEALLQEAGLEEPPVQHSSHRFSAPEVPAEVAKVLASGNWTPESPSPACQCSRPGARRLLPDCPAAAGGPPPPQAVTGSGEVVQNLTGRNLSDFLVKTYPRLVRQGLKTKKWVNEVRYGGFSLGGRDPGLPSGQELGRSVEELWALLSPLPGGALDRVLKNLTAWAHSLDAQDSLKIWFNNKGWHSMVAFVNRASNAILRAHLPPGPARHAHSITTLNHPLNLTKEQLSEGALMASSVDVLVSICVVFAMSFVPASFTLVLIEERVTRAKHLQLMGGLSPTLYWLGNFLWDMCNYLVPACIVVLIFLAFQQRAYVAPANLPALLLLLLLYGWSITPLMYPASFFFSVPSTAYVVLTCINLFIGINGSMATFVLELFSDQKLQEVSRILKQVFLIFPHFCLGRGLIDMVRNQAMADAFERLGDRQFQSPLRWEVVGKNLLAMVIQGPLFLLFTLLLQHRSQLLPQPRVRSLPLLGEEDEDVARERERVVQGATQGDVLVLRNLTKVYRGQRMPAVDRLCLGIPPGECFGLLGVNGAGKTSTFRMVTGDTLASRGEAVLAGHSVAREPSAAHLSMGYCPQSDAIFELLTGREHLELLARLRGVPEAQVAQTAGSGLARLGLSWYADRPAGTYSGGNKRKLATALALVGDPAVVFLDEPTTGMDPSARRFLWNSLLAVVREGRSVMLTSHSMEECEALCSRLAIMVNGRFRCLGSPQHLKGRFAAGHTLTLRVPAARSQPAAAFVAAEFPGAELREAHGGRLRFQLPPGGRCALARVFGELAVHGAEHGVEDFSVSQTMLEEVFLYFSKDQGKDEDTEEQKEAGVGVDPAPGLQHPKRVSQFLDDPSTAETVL
UniProt Q8NFV4: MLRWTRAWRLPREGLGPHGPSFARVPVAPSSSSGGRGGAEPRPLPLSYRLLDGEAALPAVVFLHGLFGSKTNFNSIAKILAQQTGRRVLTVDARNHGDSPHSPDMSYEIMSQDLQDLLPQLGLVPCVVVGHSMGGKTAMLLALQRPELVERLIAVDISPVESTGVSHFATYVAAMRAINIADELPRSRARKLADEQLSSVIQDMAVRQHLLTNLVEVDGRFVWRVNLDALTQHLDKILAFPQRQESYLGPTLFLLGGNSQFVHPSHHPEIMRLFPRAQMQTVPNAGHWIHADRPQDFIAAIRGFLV

What was measured:
Assay in all cases: log2 fold change, soluble protein after heating vs DMSO (PISA); higher = thermal stabilisation; K562 cells, 10 uM, 30 min; active = over 0.2 and 3.5 SD of the protein, either way, in both replicates (recomputed)
[1] = compound: NC(=O)Nc1cc(-c2cccc(F)c2)sc1C(=O)N[C@H]1CCCNC1
Method in brief: (§1)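 For each measurement, 10 μM compound was applied for 30 min to K562 cells at 2×10^6 cells/mL. Aliquots were heated for 3 min across 48°C-58°C, pooled, and extracted in PBS with 0.5% NP-40 at 4°C; the supernatant after 21,000xg for 90 min was soluble protein. This was quantified by TMTpro 16plex LC-MS/MS with channel sums equalised, and thermal stability was reported relative to control samples from duplicates, on a log2 fold-change scale.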

[2] = compound: NC(=O)c1cnc(N[C@@H]2CCCC[C@@H]2N)nc1Nc1cccc(-n2nccn2)c1
Method in brief: as §1

entinostat = compound: Nc1ccccc1NC(=O)c1ccc(CNC(=O)OCc2cccnc2)cc1 [entinostat]
Method in brief: as §1

[3] = compound: O=C1NC(=O)C(c2cnc3ccccn23)=C1c1cn2c3c(cc(F)cc13)CN(C(=O)N1CCCCC1)CC2
Method in brief: as §1

vorinostat = compound: O=C(CCCCCCC(=O)Nc1ccccc1)NO [vorinostat]
Method in brief: as §1

[4] = compound: NC1(c2ccc(-c3nc4ccn5c(=O)[nH]nc5c4cc3-c3ccccc3)cc2)CCC1
Method in brief: as §1

citarinostat = compound: O=C(CCCCCCNC(=O)c1cnc(N(c2ccccc2)c2ccccc2Cl)nc1)NO [citarinostat]
Method in brief: as §1

silmitasertib = compound: O=C(O)c1ccc2c(c1)nc(Nc1cccc(Cl)c1)c1ccncc12 [silmitasertib]
Method in brief: as §1

[5] = compound: c1cc(OCCN2CCCCC2)cc(-c2n[nH]c3ccc(-c4nnc[nH]4)cc23)c1
Method in brief: as §1

entospletinib = compound: c1cn2cc(-c3ccc4cn[nH]c4c3)nc(Nc3ccc(N4CCOCC4)cc3)c2n1 [entospletinib]
Method in brief: as §1

[6] = compound: NCC(=O)Nc1ccc(-n2nc(C(F)(F)F)cc2-c2ccc3c(ccc4ccccc43)c2)cc1
Method in brief: as §1

Measured: log2 fold change

ABCD1 (UniProt P33897)
inactive: [1] -0.058 | [2] -0.054 | entinostat 0.026 | [3] -0.001

ACSF2 isoform 2 (UniProt Q96CM8)
inactive: vorinostat -0.026

ABCB1 (UniProt P08183)
inactive: [2] -0.05 | [4] 0.054 | citarinostat -0.115 | silmitasertib 0.003 | [5] 0.097 | entospletinib -0.215

ABCA7 (UniProt Q8IZY2)
inactive: [1] -0.112 | [2] -0.245 | entinostat -0.157 | vorinostat -0.095 | citarinostat 0.085 | [3] 0.034 | [5] -0.144 | entospletinib -0.065

ABHD11 (UniProt Q8NFV4)
inactive: [2] -0.089 | [4] -0.139 | [6] 0.016 | vorinostat -0.042 | citarinostat 0.058 | silmitasertib -0.021 | [3] -0.159 | [5] -0.009
